The results in this text go back to PMC11143218, “Evolved histone tail regulates 53BP1 recruitment at damaged chromatin” (Nature Communications, 2024).

No constants are given. Whether binding was seen depends on the method and setting. Binding seen in cells or lysates may run through a third protein. Binding calls can cover weak binding; strength is not graded here.

The test has as its target T1, biotinylated phosphorylated S139 H2AX C-terminal tail peptide (human).
T1 sequence (peptide, biotin on the N-terminus; phosphoserine (pS) at S139): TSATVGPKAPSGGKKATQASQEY
As to the kind of experiment: pull-down; HEK293T lysates (myc-tagged expression vectors, NETN buffer) incubated with 2.5 μg biotinylated peptide and 10 μL streptavidin beads, 1 h at 4 °C; washed three times with NETN; western blot; only the target purified.

With “MDC1 tandem BRCT domain (human) (domain or fragment)”, the binding result was “binds”.
